This is one part of the list. The data scatter; read single values as rough.
Legend:
[1] = compound: ClCC(=O)N[C@@H]1CCCc2ccccc12; experiment: log2 mean competition ratio of IA-DTB cysteine labelling (DMSO/compound) (log2 ratio); higher = stronger cysteine engagement by compound; settings: treatment time: 4 h, cell line lysate: HEK293T
Description: (§1)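 IA-DTB competitive cysteine chemoproteomics in HEK293T RIPA lysate. Lysates were treated with compound 29 or 30 at 50 or 200 µM for 4 h, then IA-DTB (500 µM, 1 h), trypsin-digested, NeutrAvidin-enriched and analysed by diaPASEF. Competition ratio = intensity DMSO / intensity compound (n=4 treated, n=64 DMSO); binding: mean log2 CR ≥ 1 and p ≤ 0.05 plus QC filters. Target is the cysteine site.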

By UniProt entry, the sequences of proteins in these tests, tags left out. Where a name states a change or a piece, a line headed by the entry shows the natural chain unless it says otherwise. Residues count along the entry.
UniProt Q99590, 449-469: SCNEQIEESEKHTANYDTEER
UniProt Q96KG9: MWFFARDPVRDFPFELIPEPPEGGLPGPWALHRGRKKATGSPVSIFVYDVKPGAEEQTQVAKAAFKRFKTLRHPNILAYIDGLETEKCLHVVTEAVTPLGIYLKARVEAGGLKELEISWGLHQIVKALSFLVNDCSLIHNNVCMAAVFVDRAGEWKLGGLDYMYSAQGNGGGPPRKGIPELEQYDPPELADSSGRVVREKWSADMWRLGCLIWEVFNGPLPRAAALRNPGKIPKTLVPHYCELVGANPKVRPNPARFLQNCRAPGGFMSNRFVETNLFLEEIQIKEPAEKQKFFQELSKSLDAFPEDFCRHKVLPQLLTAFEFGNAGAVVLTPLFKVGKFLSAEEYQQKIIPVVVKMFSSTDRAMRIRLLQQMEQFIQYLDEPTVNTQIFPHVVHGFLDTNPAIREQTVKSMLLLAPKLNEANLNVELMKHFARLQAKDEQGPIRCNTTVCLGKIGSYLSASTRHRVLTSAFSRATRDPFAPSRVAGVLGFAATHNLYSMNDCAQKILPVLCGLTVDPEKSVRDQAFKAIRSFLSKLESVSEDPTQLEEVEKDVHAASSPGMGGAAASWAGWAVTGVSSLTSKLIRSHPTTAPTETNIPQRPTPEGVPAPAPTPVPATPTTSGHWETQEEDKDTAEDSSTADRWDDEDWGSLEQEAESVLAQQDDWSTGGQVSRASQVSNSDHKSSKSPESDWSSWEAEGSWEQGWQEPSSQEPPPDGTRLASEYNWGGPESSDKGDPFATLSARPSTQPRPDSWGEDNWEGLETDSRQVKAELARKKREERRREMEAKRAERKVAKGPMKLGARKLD
UniProt Q8TBK2: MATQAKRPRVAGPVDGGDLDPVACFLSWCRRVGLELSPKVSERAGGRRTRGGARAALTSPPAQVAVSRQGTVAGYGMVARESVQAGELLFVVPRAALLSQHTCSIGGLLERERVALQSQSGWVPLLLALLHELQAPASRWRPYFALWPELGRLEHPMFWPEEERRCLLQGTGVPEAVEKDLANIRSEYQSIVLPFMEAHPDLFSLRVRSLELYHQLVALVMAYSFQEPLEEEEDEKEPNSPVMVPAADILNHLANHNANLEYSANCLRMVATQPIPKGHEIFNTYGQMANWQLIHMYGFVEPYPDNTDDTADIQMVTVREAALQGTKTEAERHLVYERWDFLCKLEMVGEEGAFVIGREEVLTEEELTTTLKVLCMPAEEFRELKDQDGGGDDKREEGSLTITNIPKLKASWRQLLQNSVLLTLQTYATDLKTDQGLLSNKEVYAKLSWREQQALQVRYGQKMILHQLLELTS
UniProt Q9UGP8: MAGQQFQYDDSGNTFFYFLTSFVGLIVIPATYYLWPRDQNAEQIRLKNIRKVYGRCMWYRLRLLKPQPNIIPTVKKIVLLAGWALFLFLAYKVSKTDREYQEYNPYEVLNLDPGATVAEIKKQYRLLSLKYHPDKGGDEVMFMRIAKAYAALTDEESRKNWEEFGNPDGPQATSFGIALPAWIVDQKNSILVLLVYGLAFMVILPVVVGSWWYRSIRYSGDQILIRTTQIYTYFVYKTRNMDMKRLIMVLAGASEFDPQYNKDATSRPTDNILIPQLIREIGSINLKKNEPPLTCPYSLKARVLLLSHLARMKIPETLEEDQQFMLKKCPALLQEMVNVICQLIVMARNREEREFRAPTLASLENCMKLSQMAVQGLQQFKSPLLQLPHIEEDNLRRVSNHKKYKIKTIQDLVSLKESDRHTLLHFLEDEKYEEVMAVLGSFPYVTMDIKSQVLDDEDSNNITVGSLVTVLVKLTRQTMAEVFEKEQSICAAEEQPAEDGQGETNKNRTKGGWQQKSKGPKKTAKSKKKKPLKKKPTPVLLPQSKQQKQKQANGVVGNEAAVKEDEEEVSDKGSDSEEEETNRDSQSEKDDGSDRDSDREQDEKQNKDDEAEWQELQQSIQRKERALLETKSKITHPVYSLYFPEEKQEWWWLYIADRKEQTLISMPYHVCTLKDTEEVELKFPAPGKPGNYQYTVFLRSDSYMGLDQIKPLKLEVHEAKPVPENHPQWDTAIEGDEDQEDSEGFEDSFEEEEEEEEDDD
UniProt O43166: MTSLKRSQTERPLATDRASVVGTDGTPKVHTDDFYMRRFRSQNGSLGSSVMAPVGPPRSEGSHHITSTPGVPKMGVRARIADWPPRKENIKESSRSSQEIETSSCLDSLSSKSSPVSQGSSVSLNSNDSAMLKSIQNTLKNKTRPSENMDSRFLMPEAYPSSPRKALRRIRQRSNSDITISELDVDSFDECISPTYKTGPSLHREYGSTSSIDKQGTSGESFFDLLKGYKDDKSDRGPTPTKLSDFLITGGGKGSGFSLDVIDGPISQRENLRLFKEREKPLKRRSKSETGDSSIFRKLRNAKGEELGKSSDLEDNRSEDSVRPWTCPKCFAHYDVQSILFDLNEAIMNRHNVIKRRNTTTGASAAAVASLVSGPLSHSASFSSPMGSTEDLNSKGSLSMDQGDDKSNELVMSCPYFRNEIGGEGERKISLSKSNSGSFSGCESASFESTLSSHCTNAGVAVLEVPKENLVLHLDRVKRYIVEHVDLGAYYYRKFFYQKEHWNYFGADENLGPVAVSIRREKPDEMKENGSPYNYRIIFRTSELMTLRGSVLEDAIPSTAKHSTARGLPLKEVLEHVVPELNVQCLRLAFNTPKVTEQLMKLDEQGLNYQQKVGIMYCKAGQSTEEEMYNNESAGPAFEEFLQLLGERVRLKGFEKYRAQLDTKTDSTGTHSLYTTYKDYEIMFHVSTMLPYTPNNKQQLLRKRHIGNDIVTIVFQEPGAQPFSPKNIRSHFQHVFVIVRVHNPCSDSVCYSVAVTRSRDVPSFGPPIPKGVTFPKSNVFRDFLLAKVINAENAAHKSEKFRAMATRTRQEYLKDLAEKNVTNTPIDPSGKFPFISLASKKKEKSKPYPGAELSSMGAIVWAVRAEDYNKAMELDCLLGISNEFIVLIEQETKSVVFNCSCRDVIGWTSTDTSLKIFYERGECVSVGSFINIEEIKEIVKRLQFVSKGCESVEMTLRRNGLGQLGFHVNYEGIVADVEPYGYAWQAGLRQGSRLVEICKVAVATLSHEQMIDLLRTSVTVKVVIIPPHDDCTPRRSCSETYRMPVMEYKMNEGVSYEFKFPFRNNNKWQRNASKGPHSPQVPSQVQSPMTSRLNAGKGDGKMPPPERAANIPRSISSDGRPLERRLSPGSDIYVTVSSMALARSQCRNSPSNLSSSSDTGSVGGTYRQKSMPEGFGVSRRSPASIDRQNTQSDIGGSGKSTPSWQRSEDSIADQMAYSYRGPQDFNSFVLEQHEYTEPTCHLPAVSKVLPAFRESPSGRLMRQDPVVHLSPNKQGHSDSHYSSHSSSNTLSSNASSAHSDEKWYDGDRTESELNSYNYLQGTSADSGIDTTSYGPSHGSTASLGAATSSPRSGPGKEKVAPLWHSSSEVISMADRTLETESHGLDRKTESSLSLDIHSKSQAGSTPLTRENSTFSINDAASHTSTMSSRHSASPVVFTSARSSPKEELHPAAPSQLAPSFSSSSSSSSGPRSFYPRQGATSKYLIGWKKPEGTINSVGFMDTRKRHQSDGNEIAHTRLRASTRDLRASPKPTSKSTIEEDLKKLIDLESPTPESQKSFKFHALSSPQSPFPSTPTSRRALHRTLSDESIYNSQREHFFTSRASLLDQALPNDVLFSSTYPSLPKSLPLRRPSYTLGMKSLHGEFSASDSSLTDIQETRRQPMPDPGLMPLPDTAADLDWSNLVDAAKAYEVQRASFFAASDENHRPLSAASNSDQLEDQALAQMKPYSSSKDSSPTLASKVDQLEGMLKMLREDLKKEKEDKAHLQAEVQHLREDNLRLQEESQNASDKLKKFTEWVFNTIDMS
UniProt Q9P0V9: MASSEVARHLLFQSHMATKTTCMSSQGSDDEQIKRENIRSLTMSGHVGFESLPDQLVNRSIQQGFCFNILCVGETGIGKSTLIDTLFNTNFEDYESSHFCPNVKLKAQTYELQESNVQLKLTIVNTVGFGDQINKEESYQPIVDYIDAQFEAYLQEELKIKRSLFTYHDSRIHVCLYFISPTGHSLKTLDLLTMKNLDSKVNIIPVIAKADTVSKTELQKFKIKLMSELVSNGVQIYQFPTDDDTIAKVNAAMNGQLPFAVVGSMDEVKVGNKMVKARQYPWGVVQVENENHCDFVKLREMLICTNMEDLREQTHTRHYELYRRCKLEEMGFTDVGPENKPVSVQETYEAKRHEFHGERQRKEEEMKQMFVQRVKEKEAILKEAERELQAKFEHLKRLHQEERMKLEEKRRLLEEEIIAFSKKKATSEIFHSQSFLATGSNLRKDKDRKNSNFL
UniProt Q96EE3: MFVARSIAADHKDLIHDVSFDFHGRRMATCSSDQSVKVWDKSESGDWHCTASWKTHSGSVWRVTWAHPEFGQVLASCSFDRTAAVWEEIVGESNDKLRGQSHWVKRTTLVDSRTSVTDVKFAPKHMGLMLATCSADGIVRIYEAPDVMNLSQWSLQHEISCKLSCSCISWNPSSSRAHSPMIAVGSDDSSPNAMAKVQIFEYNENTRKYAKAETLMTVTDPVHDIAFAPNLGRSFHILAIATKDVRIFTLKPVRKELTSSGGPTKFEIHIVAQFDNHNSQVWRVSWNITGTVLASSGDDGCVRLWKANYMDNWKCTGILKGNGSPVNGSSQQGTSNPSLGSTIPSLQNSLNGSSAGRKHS
UniProt Q8TBC3: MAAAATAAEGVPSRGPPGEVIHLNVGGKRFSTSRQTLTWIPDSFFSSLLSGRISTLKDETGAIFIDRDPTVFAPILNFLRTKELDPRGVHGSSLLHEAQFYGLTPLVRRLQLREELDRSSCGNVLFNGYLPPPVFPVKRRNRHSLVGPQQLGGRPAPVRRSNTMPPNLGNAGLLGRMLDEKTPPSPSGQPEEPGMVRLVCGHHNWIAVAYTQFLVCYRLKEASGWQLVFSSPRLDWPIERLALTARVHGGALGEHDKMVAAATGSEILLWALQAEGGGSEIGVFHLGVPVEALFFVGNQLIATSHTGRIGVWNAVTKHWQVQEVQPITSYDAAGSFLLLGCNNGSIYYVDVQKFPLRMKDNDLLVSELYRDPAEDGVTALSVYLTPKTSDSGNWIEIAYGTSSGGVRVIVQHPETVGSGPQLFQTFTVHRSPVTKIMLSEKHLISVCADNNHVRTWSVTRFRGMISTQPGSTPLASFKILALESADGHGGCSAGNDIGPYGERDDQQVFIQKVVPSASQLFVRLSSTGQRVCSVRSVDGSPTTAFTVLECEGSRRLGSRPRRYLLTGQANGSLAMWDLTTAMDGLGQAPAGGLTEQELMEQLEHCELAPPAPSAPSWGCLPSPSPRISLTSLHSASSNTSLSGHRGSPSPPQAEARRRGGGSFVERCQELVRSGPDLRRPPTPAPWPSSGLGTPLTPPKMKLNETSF
UniProt P31040: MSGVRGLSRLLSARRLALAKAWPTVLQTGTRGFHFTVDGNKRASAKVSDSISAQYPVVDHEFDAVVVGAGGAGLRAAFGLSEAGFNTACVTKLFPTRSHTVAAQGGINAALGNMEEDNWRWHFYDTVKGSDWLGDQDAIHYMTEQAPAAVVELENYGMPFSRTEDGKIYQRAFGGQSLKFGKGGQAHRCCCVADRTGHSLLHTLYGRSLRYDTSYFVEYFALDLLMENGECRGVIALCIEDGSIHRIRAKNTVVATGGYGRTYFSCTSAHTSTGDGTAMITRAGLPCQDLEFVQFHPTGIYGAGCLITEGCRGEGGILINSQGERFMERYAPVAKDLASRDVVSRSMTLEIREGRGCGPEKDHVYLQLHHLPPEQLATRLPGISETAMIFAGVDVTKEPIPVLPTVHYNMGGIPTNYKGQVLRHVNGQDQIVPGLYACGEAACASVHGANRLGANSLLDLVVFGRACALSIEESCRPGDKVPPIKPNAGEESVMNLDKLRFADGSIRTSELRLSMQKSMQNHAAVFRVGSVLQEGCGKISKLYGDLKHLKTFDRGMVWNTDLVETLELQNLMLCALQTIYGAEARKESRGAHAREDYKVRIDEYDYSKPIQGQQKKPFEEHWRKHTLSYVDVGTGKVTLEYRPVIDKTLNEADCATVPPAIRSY
UniProt Q9Y3L3, 325-349: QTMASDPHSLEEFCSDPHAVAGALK

[2] = compound: ClCC(=O)N[C@H]1CCCc2ccccc12; experiment: as above; settings: treatment time: 4 h, cell line lysate: HEK293T
Description: as §1

Question: What does the source list for SCAF11 C450 (UniProt Q99590)?
Answer: log2 mean competition ratio ([1]; 50 µM): 0.0938; log2 mean competition ratio ([1]; 200 µM): -0.0294; log2 mean competition ratio ([2]; 50 µM): -0.0385; log2 mean competition ratio ([2]; 200 µM): -0.0817

Question: SH3BP4 C833 (UniProt Q9P0V3) was tested. Which “log2 mean competition ratio” value ([1]; 50 µM) did it give?
Answer: 0.138

Question: And the “log2 mean competition ratio” value ([1]; 200 µM)?
Answer: 0.0245

Question: And the “log2 mean competition ratio” value ([2]; 50 µM)?
Answer: 0.627

Question: And the “log2 mean competition ratio” value ([2]; 200 µM)?
Answer: 0.0553

Question: Which results are given for SCYL1 C309 (UniProt Q96KG9)?
Answer: log2 mean competition ratio ([1]; 50 µM): -0.159; log2 mean competition ratio ([1]; 200 µM): 0.219; log2 mean competition ratio ([2]; 50 µM): -0.0376; log2 mean competition ratio ([2]; 200 µM): 0.358

Question: How did the “log2 mean competition ratio” value ([1]; 50 µM) turn out when SETD6 C166 (UniProt Q8TBK2) was run?
Answer: 0.00486

Question: And the “log2 mean competition ratio” value ([1]; 200 µM)?
Answer: -0.15

Question: What about the “log2 mean competition ratio” value ([2]; 50 µM) of the same target?
Answer: -0.0585

Question: What about the “log2 mean competition ratio” value ([2]; 200 µM) of the same target?
Answer: -0.0485

Question: With SEC63 C295 (UniProt Q9UGP8) as the target, how does the “log2 mean competition ratio” value ([1]; 50 µM) read?
Answer: 0.276

Question: What about the “log2 mean competition ratio” value ([1]; 200 µM) of the same target?
Answer: 0.844

Question: What about the “log2 mean competition ratio” value ([2]; 50 µM) of the same target?
Answer: 0.18

Question: What about the “log2 mean competition ratio” value ([2]; 200 µM) of the same target?
Answer: 0.779

Question: With SIPA1L1 C1037 (UniProt O43166) as the target, how does the “log2 mean competition ratio” value ([1]; 50 µM) read?
Answer: 0.0622

Question: What about the “log2 mean competition ratio” value ([1]; 200 µM) of the same target?
Answer: 0.0795

Question: What about the “log2 mean competition ratio” value ([2]; 50 µM) of the same target?
Answer: -0.101

Question: And the “log2 mean competition ratio” value ([2]; 200 µM)?
Answer: 0.0376

Question: With SHROOM3 C508 as the target, how does the “log2 mean competition ratio” value ([1]; 50 µM) read?
Answer: 0.207

Question: What about the “log2 mean competition ratio” value ([1]; 200 µM) of the same target?
Answer: 0.218

Question: What about the “log2 mean competition ratio” value ([2]; 50 µM) of the same target?
Answer: 0.0263

Question: What about the “log2 mean competition ratio” value ([2]; 200 µM) of the same target?
Answer: 0.232

Question: SH3PXD2B C102 (UniProt A1X283) was tested. Which “log2 mean competition ratio” value ([1]; 50 µM) did it give?
Answer: 0.195

Question: What about the “log2 mean competition ratio” value ([1]; 200 µM) of the same target?
Answer: 0.152

Question: What about the “log2 mean competition ratio” value ([2]; 50 µM) of the same target?
Answer: 0.407

Question: And the “log2 mean competition ratio” value ([2]; 200 µM)?
Answer: -0.0454

Question: How did the “log2 mean competition ratio” value ([1]; 50 µM) turn out when SEPTIN10 C22 (UniProt Q9P0V9) was run?
Answer: 0.101

Question: What about the “log2 mean competition ratio” value ([1]; 200 µM) of the same target?
Answer: -0.0556

Question: And the “log2 mean competition ratio” value ([2]; 50 µM)?
Answer: -0.182

Question: What about the “log2 mean competition ratio” value ([2]; 200 µM) of the same target?
Answer: -0.239

Question: How did the “log2 mean competition ratio” value ([1]; 50 µM) turn out when SEH1L C30 (UniProt Q96EE3) was run?
Answer: -0.186

Question: And the “log2 mean competition ratio” value ([1]; 200 µM)?
Answer: 0.297

Question: And the “log2 mean competition ratio” value ([2]; 50 µM)?
Answer: -0.42

Question: What about the “log2 mean competition ratio” value ([2]; 200 µM) of the same target?
Answer: 0.126

Question: Which results are given for SIPA1L3 C438?
Answer: log2 mean competition ratio ([1]; 50 µM): -0.114; log2 mean competition ratio ([1]; 200 µM): -0.00118; log2 mean competition ratio ([2]; 50 µM): -0.165; log2 mean competition ratio ([2]; 200 µM): 0.0414

Question: What does the source list for SHKBP1 C550 (UniProt Q8TBC3)?
Answer: log2 mean competition ratio ([1]; 50 µM): 0.638; log2 mean competition ratio ([2]; 50 µM): -0.0535; log2 mean competition ratio ([2]; 200 µM): 0.396

Question: How did the “log2 mean competition ratio” value ([1]; 50 µM) turn out when SGO2 C176 (UniProt Q562F6) was run?
Answer: -0.151

Question: And the “log2 mean competition ratio” value ([1]; 200 µM)?
Answer: 0.148

Question: And the “log2 mean competition ratio” value ([2]; 50 µM)?
Answer: -0.267

Question: What about the “log2 mean competition ratio” value ([2]; 200 µM) of the same target?
Answer: 0.0747

Question: What does the source list for SDHA C536 (UniProt P31040)?
Answer: log2 mean competition ratio ([1]; 50 µM): -0.251; log2 mean competition ratio ([1]; 200 µM): -0.0396; log2 mean competition ratio ([2]; 50 µM): -0.00731; log2 mean competition ratio ([2]; 200 µM): -0.0317

Question: Which results are given for SERPINB6 C370?
Answer: log2 mean competition ratio ([1]; 50 µM): 0.148; log2 mean competition ratio ([1]; 200 µM): -0.281; log2 mean competition ratio ([2]; 50 µM): 0.345; log2 mean competition ratio ([2]; 200 µM): -0.252

Question: What does the source list for SH3BP1 C338 (UniProt Q9Y3L3)?
Answer: log2 mean competition ratio ([1]; 50 µM): -0.608; log2 mean competition ratio ([1]; 200 µM): -0.01; log2 mean competition ratio ([2]; 50 µM): 0.265; log2 mean competition ratio ([2]; 200 µM): -0.0603

Question: What does the source list for SH3BP1 C388 (UniProt Q9Y3L3)?
Answer: log2 mean competition ratio ([1]; 50 µM): -0.282; log2 mean competition ratio ([1]; 200 µM): 0.0863; log2 mean competition ratio ([2]; 50 µM): -0.518; log2 mean competition ratio ([2]; 200 µM): -0.153

Question: What does the source list for SEC63 C366 (UniProt Q9UGP8)?
Answer: log2 mean competition ratio ([1]; 50 µM): -0.0526; log2 mean competition ratio ([1]; 200 µM): 0.015; log2 mean competition ratio ([2]; 50 µM): -0.331; log2 mean competition ratio ([2]; 200 µM): 0.0686

— the supplement of paper PMC11732987, “Enantioselective OTUD7B fragment discovery through chemoproteomics screening and high-throughput optimisation” (Communications Chemistry, 2025)
